The values that follow come from patent US7820642B2, “Nandrolone 17β-carbonates” (The United States of America as represented by the …, priority 2005, dated 2010).

For the series, the system named is castrate Sprague-Dawley male rats. The experiment in a line: Androgenic activity, Hershberger test (ventral prostate weight). The note with it: oral Hershberger test; Y against log (x). Format: in vivo, rat. As for the experimental part:
The androgenic activity was tested as follows (see, Hershberger et al., Proc. Soc. Exptl. Biol. Med., 83: 175-180 (1953)). Immature (approximately 21 day old) male rats of the Sprague-Dawley strain were orchidectomized under METOFANE® anesthesia and randomly assigned to groups of ten animals for each dose level of test material and vehicle controls. Animals were maintained under standard conditions of housing and had free access to food and water. Illumination was controlled for 14-hour periods of light and 10 hours of darkness. Test compounds were dissolved in 10% ethanol/sesame oil and administered by gavage (oral) or subcutaneous injection daily for seven consecutive days starting on the day of surgery. Animals were sacrificed 24 hours after the last dose and the ventral prostate and seminal vesicles excised, cleaned of fat and connective tissue, blotted on moist filter paper and weighed to the nearest 0.1 mg. Ventral prostate weight was used as the endpoint because ventral prostate is the more sensitive organ to androgenic stimulation.
Statistical analysis was performed by conventional methods using a PROPHET data management system operating on SUN Microsystems OS 4.1.1 (see e.g., Bliss, Cl (1952) The Statistics of Bioassay, New York, Academic Press; Hollister, C (1988), Nucleic Acids Research, 16:1873-1875.
Each data point represents the mean (n=10) and standard error of the mean (SEM) prostate weight for each dose level. The potency ratio and 95% confidence index are set forth below.

As for `C[C@]12CCC(=O)C=C1CC[C@@H]1[C@@H]2CC[C@@]2(C)[C@H]1CC[C@]2(C)O` [CDB-110B, methyltestosterone, reference compound], the “Fitted Lines (ventral prostate weight versus log dose)” value was “Y = 27.45 log (x) + 31.77”. The value for `COC(=O)O[C@H]1CC[C@H]2[C@H]3[C@H]([C@@H](C)C[C@]12C)[C@H]1CCC(=O)C=C1C[C@H]3C` [CDB-4718, 17β-Methoxycarbonyloxy-7α,11β-dimethylestr-4-en-3-one] was “Y = 31.31 log (x) + 41.95”; that for `CCCCCCCCCCOC(=O)O[C@H]1CC[C@H]2[C@H]3[C@H]([C@@H](C)C[C@]12C)[C@H]1CCC(=O)C=C1C[C@H]3C` [CDB-4719, 17β-Decyloxycarbonyloxy-7α,11β-dimethylestr-4-en-3-one] was “Y = 44.41 log (x) + 53.7”.
